Measurements: patent US20160347843A1
Results are given in words; binding and its absence hold for the method and conditions named. Some entries that bind do so weakly or less than the wild type.

Chains of the proteins cited; added tags and fusions are not shown. Lines headed by an entry give the natural chain unless they say otherwise; changes in a name come on top.
UniProt P17948: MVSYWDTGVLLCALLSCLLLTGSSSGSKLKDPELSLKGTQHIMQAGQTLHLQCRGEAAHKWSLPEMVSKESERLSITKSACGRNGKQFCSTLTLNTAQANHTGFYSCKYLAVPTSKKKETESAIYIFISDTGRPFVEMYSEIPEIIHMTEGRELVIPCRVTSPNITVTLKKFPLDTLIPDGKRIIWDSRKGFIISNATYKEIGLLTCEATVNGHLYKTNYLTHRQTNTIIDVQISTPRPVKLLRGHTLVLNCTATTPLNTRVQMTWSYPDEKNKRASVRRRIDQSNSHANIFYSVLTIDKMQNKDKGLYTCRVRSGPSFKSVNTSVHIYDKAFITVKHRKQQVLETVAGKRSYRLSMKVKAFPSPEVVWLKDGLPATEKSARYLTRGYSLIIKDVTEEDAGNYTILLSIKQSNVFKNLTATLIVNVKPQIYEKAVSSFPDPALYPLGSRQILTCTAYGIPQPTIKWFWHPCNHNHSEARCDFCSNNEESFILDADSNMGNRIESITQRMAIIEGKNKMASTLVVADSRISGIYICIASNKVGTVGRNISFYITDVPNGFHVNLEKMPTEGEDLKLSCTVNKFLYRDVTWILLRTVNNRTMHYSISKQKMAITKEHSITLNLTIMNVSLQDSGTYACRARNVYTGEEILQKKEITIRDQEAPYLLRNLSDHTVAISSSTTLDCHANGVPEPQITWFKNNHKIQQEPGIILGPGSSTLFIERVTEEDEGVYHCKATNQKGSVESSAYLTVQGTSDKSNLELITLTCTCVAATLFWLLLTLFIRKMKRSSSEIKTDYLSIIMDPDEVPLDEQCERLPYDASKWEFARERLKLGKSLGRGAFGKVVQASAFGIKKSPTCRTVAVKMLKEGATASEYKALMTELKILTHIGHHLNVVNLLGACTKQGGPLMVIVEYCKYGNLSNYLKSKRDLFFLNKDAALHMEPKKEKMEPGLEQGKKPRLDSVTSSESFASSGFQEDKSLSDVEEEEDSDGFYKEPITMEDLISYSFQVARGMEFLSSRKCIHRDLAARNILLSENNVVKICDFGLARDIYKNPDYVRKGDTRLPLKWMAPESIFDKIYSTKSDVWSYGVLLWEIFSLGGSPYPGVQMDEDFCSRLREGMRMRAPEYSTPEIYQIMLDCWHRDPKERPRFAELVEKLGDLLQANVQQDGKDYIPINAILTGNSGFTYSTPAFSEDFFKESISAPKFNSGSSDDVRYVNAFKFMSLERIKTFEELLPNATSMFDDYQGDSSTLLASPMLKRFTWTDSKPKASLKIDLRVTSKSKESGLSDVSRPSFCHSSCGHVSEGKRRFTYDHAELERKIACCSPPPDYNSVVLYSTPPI

Columns and labels:
[1] = target: recombinant human sFlt1-1 with C-terminal 6-histidine tag, expressed in CHO cells (human) (UniProt P17948); test: capture ELISA
[2] = target: recombinant human sFlt1-1 with C-terminal 6-histidine tag, expressed in CHO cells (human) (UniProt P17948); test: western blot, recombinant standards
[3] = target: recombinant human sFlt1-1 with C-terminal 6-histidine tag, expressed in CHO cells (human) (UniProt P17948); test: western blot, reducing SDS-PAGE, nitrocellulose, probed with 1C-KLH-18, HRP anti-mouse secondary
[4] = target: recombinant human sFlt1-1 with C-terminal 6-histidine tag, expressed in CHO cells (human) (UniProt P17948); test: ELISA
[5] = target: recombinant human sFlt1-1 with C-terminal 6-histidine tag, expressed in CHO cells (human) (UniProt P17948); test: capture ELISA: plate coated with anti-sFlt human antibody, recombinant sFlt1-1 titrated, detected with 1CKLH18 and anti-mouse conjugate, OD405

binding [1]: binds | binding [2]: binds | binding [3]: binds | binding [4]: binds | binding [5]: binds
B1: mouse mAb 1C-KLH-18 (antibody, V domains shown)
VH: EVQLQQSGAELVRPGASVKLSCTASGVNIKDDYMNWVNQRPEQGLEWIGWIDPENGDTEYASKFQGKATITADTSSNTAYLQLSSLTSEDTAVYYCAAGYDYFPFVYWGQGTLVAVSA
VL: DVLMSQTPLSLPVSLGDQASISCRSSQNIVHSNGNTYLEWYLQKPGQSPKLLIHKVSNRFSGVPDRFSGSGSGTDFTLKISRVEAEDLGVYYCFQGSHVPFTFGSGTKLEKK
